# PubChem BioAssay AID504467 (National Center for Advancing Translational Sciences (NCATS), 2011)
# Screen size: about 330,000 compounds; about 7,700 (2.3%) were called active. Inconclusive results, whose numbers are uncertain, are shown with a selection of clear calls. Calls come from the whole dose curve; as a rule, active = well fitted inhibition curve with a large enough effect; inconclusive = small, poorly fitted or top-dose-only effect, or effect the other way; inactive = flat fitted curve, though single readings scatter. Where the call is inconclusive, the potency comes from a doubtful curve fit.
# Assay: qHTS screen for small molecules that inhibit ELG1-dependent DNA repair in human embryonic kidney (HEK293T) cells expressing luciferase-tagged ELG1; note: nearly all actives have a fitted effect of over 55% in size
# Conditions: HEK293T ELG1-luciferase reporter, luminescence, 16 h, DNA damage induced by 5-fluorouridine; series mostly up to 46.1 µM
# Procedure, shortened: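 Luminescence from the luciferase reporter, measured 30 min after ONE-Glo reagent at room temperature, was the read-out. Beforehand, 2,000 cells per well were exposed for 16 hr at 37 °C to 5-fluorouridine together with compound or vehicle.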
# Potency is the fitted concentration of half-maximal effect.
row,SMILES,Potency
1,NS(=O)(=O)c1cccc(NC(=O)/C=C/c2cccs2)c1,"inconclusive: 16.4 µM [activator, partial curve]"
2,COc1ccccc1/C=C1\S/C(=N/NC(=O)c2cccc(Br)c2)NC1=O,inactive
3,CC1Cc2ccccc2N1C(=O)CSc1nnc2c(n1)[nH]c1ccc(F)cc12 (stereo not drawn),inactive
4,CCc1cc(C(=O)Nc2cc(S(=O)(=O)N(CC)CC)ccc2N2CCN(C)CC2)sc1C,"inconclusive: 9.2 µM [inhibitor, single point]"
5,COc1ccc(-c2csc(N(CCCN(C)C)C(=O)c3ccc(F)cc3)n2)cc1,"inconclusive: 0.231 µM [activator, single point]"
6,C/C(=N\NC(=O)Cc1cccn1C)c1cccs1,"inconclusive: 11.6 µM [activator, partial curve, poor fit]"
7,NC(=O)N/N=C/c1c(Sc2nnnn2-c2ccccc2)nc2ccccn2c1=O,"inconclusive: 20.6 µM [inhibitor, single point]"
8,CCOC(=O)c1c(NC(=O)CN2C(=O)NC3(CCCCC3)C2=O)sc(C)c1-c1ccc(C)cc1,"inconclusive: 25.9 µM [inhibitor, single point]"
9,CN1CCN(c2ccc([N+](=O)[O-])cc2NC(=O)c2ccco2)CC1,inactive
10,CCS(=O)(=O)c1ccc(O)c(NC(=O)c2cc(-c3ccccn3)nc3ccccc23)c1,"inconclusive: 16.4 µM [inhibitor, single point]"
11,C=CCn1c(SCC(=O)N(CCOC)c2c(N)n(CC(C)C)c(=O)[nH]c2=O)nc2ccccc21,inactive
12,Cc1cc(C)c(N=C2SCC(=O)N2Cc2ccco2)c(C)c1,"inconclusive: 25.9 µM [inhibitor, partial curve, poor fit]"
13,CCOc1ccc(CN2C(=O)CCC2(C)C(=O)NCc2cccnc2)cc1 (stereo not drawn),"inconclusive: 10.3 µM [activator, single point]"
14,COc1cc2c(c(OC)c1OC)-c1ccc(NC(=O)c3ccc(F)cc3)c(=O)cc1[C@@H](NC(C)=O)CC2,inactive
15,O=C(Nc1ccc(N2CCCC2)c(Cl)c1)c1ccc(Br)o1,"inconclusive: 2.06 µM [activator, partial curve]"
16,CC(=O)c1ccc(N/C=C/C(=O)c2ccc(Br)cc2)cc1,"inconclusive: 3.16 µM [activator, partial curve, poor fit]"
17,Nc1[nH]c(N=NC(=O)c2ccccc2)c2ccccc12,"inconclusive: 5.8 µM [activator, partial curve]"
18,Cc1nc(-c2ccc([N+](=O)[O-])cc2)nc2[nH]ccc(=O)c12,"inconclusive: 2.91 µM [activator, partial curve]"

# Retrieved by compound from the entries so far (2):
row,SMILES,Potency
7,NC(=O)N/N=C/c1c(Sc2nnnn2-c2ccccc2)nc2ccccn2c1=O,"inconclusive: 20.6 µM [inhibitor, single point]"
6,C/C(=N\NC(=O)Cc1cccn1C)c1cccs1,"inconclusive: 11.6 µM [activator, partial curve, poor fit]"
